Source: PubChem BioAssay AID504467 (National Center for Advancing Translational Sciences (NCATS), 2011)
Hit rate of the full screen: of about 330,000 compounds, about 7,700 (2.3%) were called active. Inconclusive means that the source gave no clear call. Such entries were picked first, then a sample of the others. The call rests on the fitted dose curve; in most records, active means well fitted inhibition curve with a large enough effect; inconclusive means small, poorly fitted or top-dose-only effect, or effect the other way; inactive means flat fitted curve, though single readings scatter. Potencies of inconclusive entries are doubtful fits and often do not repeat.
On the % scale 0 is the no-effect control and ±100 the full control effect; potency means the concentration at half of the fitted maximal effect.

Experiment: qHTS screen for small molecules that inhibit ELG1-dependent DNA repair in human embryonic kidney (HEK293T) cells expressing luciferase-tagged ELG1; further: nearly all actives have a fitted effect of over 55% in size
Conditions: HEK293T ELG1-luciferase reporter, luminescence, 16 h, DNA damage induced by 5-fluorouridine; activity change, negative = inhibition: at 46.1 µM (top of the series)
Method in brief: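 Quantitative HTS, concentration-response format. 2,000 cells/well co-treated with 5-fluorouridine and compound, 16 hr in 5% CO2 at 37 °C; ONE-Glo luminescence read after 30 min.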
In the case of `CCOc1ccccc1NC(=S)NCC1CCCO1` (configuration not stated), the “activity change, negative = inhibition” value is reported as inactive: 8.22%.
With `Cc1nnn(C23C[C@@H]4C[C@@H](CC(C(=O)N5CCN(c6ccccc6)CC5)(C4)C2)C3)n1` the Potency was active: 23.1 µM.
For `CC(=O)Nc1ccc(C23CC4CC(CC(C4)C2)C3)cc1`, the Potency was inconclusive: 32.6 µM [activator, single point].
For `C=CCOc1ccc(C2NC(=S)NC3=C2CCc2ccccc23)cc1` (configuration not stated), the Potency was active: 5.17 µM.
For `COc1ccccc1N1CCN(c2nnc(-c3ccc(F)cc3)c3ccccc23)CC1`, the Potency was inconclusive: 5.8 µM [inhibitor, single point].
With `O=C(NC1CCCCC1)C(c1ccc(F)cc1)N(Cc1ccco1)C(=O)Cn1nnc2ccccc21` (configuration not stated) the “activity change, negative = inhibition” value was inactive: 1.91%.
In the case of `O=C1/C(=C/c2ccncc2)SC(=S)N1C1CCS(=O)(=O)C1` (configuration not stated), the Potency is reported as inconclusive: 23.1 µM [inhibitor, single point].
For `Cc1ccc(C)c(S(=O)(=O)N2CCN(CC(=O)Nc3ccc([N+](=O)[O-])cc3)CC2)c1`, the Potency was active: 14.6 µM.
In the case of `Cc1ccccc1NC(=O)C1c2ccccc2Oc2ccccc21`, the Potency is reported as inconclusive: 16.4 µM [activator, partial curve, poor fit].
For `COc1ccc(OC)c2[nH]c(=O)c(CCNC(=O)c3cc4ccccc4o3)cc12`, the Potency was active: 18.4 µM.
With `COc1cc(/C=C(\C#N)c2ccccn2)ccc1OCc1ccc(Cl)cc1` the Potency was inconclusive: 14.6 µM [inhibitor, partial curve].
For `Cc1[nH]n(-c2ccc(Br)cc2)c(=O)c1/C=N/NC(=O)c1ccccc1`, the Potency was inconclusive: 5.01 µM [inhibitor, partial curve, poor fit].
In the case of `O=C(NCCCC1CCCC1)C1CCC(=O)N(Cc2ccc(Cl)cc2)C1` (configuration not stated), the Potency is reported as inconclusive: 16.4 µM [inhibitor, single point].
For `Cc1cccc(OCc2nnc(SCC(=O)c3ccccc3)o2)c1`, the “activity change, negative = inhibition” value was inactive: 3.72%.
In the case of `Nc1c(C(=O)N2CCCCC2)sc2nc3c(cc12)CCCC3`, the Potency is reported as inconclusive: 11.6 µM [activator, partial curve].
For `CCN1CC(O)=C(c2nc3ccccc3s2)C1=N`, the Potency was inconclusive: 18.4 µM [activator, single point].
In the case of `COc1ccc(/C=N/NC(=O)c2ccc(-c3ccccc3)cc2)cc1O`, the Potency is reported as inconclusive: 16.4 µM [inhibitor, partial curve].
In the case of `Cc1cc(C)nc(NC(=O)Nc2ccc3c(c2)OCO3)c1`, the Potency is reported as inconclusive: 3.66 µM [activator, partial curve, poor fit].
In the case of `O=C1c2ccccc2C(=O)N1CCCc1nc2ccccc2c(=O)n1Cc1ccco1`, the Potency is reported as inconclusive: 35.5 µM [inhibitor, single point].
In the case of `N#Cc1ccccc1`, the “activity change, negative = inhibition” value is reported as inactive: 11.2%.
In the case of `Cc1cccc(NC(=O)Nc2cc(C)cc(C)n2)c1`, the Potency is reported as inconclusive: 8.2 µM [activator, partial curve].
For `CC(C)(C)C1CCc2onc(C(=O)Nc3cccnc3)c2C1` (configuration not stated), the Potency was inconclusive: 20.6 µM [inhibitor, single point].
In the case of `Cc1c(C)n(Cc2ccccc2)c2ccc(C(=O)OCCCN(C)C)cc12`, the Potency is reported as inconclusive: 0.184 µM [inhibitor, full curve, poor fit].
In the case of `CN(C(=O)COc1nnc(-c2cccs2)c(-c2cccs2)n1)c1ccccc1`, the Potency is reported as inconclusive: 23.1 µM [inhibitor, partial curve, poor fit].
For `CC1CCN(C(=O)CN(c2ccc3c(c2)OCCO3)S(=O)(=O)c2ccccc2)CC1`, the Potency was inconclusive: 29.1 µM [activator, single point].
With `COc1ccc(-n2c(=O)c3ccccc3n(Cc3ccc(F)cc3)c2=O)cc1OC` the Potency was inconclusive: 29.1 µM [inhibitor, single point].
In the case of `O=c1oc2ccc3ccccc3c2cc1-c1nnc(-c2cccs2)o1`, the “activity change, negative = inhibition” value is reported as inactive: 2.52%.
With `CC(C)C(=O)NC(c1ccc(Cl)cc1Cl)c1ccc2cccnc2c1O` (configuration not stated) the “activity change, negative = inhibition” value was inactive: -27.3%.
With `COc1cccc(C(=O)OCC(=O)c2c[nH]c3ccccc23)c1OC` the Potency was inconclusive: 13 µM [activator, partial curve].
In the case of `CC(C)(C)OC(=O)NNC(=O)c1cccs1`, the Potency is reported as inconclusive: 32.6 µM [activator, partial curve, poor fit].
With `CCOC(=O)C1CCN(C(=O)COC(=O)CNC(=O)c2sc3ccccc3c2Cl)CC1` the “activity change, negative = inhibition” value was inactive: 7.38%.
With `O=C(O)c1ccc(Cl)c(S(=O)(=O)NCC2CCCO2)c1` (configuration not stated) the “activity change, negative = inhibition” value was inactive: 0%.
With `Cc1ccc(N(C(=O)c2snc(C(N)=O)c2N)C(C(=O)NCC2CCCO2)c2ccc(C)o2)c(C)c1` (configuration not stated) the “activity change, negative = inhibition” value was inactive: -6.45%.
With `COc1ccc(CCNC(=O)CCCCCNc2nc(=S)[nH]c3ccccc23)cc1OC` the Potency was inconclusive: 20.6 µM [inhibitor, partial curve].
For `CC(C)(C)OC(=O)C[C@@H]1C/C=C\C[C@@H](CC(=O)NCCO)C(=O)N[C@H](Cc2c[nH]c3ccccc23)COC1=O`, the Potency was inconclusive: 13 µM [activator, partial curve].
In the case of `CC1CCCC(NC(=O)c2cccc(S(=O)(=O)NCc3ccccc3)c2)C1C` (configuration not stated), the “activity change, negative = inhibition” value is reported as inactive: -21%.
For `O=C(NCc1nc2ccccc2[nH]1)C1=C[C@H](C2CCCCC2)C[C@H](OCc2ccc(CO)cc2)O1`, the Potency was inconclusive: 23.1 µM [inhibitor, partial curve].
With `O=C(Nc1ccc(C(=O)O)cc1)/C(=C\c1ccco1)NC(=O)c1ccco1` the “activity change, negative = inhibition” value was inactive: 7.79%.
In the case of `O=C1Nc2ccc(Cl)cc2C(C#CC2CC2)(C(F)(F)F)O1` (configuration not stated), the “activity change, negative = inhibition” value is reported as inactive: -16.4%.
For `CN1C(=O)C2(C(C#N)=C(N)N(c3cc(Cl)cc(Cl)c3)C3=C2C(=O)CCC3)c2ccccc21` (configuration not stated), the Potency was active: 10.3 µM.
With `CCOC(=O)c1c(NC(=O)CSc2nnc(-c3c[nH]c4ccccc34)n2CC)sc2c1CCCC2` the “activity change, negative = inhibition” value was inactive: -22.9%.
With `O=C(COc1ccccc1Cl)Nc1nnc(S(=O)(=O)N2CCCCCC2)s1` the “activity change, negative = inhibition” value was inactive: -3.35%.
With `CC(=O)N1CCOc2ccc(S(=O)(=O)N3CCC(C(=O)NCc4ccc(C)cc4)CC3)cc21` the “activity change, negative = inhibition” value was inactive: -2.76%.
With `CSc1nc(-c2ccco2)cc(C(F)(F)F)c1C#N` the “activity change, negative = inhibition” value was inactive: -0.696%.
For `Cn1c(=O)cc(SCC(=O)N2CCCC2)c2ccc(Cl)cc21`, the Potency was inconclusive: 29.1 µM [activator, single point].
With `O=C(NNC(=O)c1cccc(-n2cccc2)c1)c1ccccc1` the Potency was inconclusive: 20.6 µM [activator, partial curve].
In the case of `C=CCn1c(C)cc(C(=O)COC(=O)c2n[nH]c(=O)c3ccccc23)c1C`, the Potency is reported as inconclusive: 2.31 µM [activator, full curve].
With `O=C(NCCn1ccc2ccccc21)c1ccc2c(c1)OCO2` the Potency was inconclusive: 2.91 µM [activator, partial curve].
For `CS(=O)(=O)c1ccc(C(=O)OCc2nnc(-c3ccc(Cl)cc3)o2)cc1[N+](=O)[O-]`, the Potency was inconclusive: 29.1 µM [activator, single point].
With `COC(=O)c1cccc(N(C(=O)c2cnccn2)C(C(=O)NCc2ccccc2)c2ccco2)c1` (configuration not stated) the Potency was inconclusive: 35.5 µM [inhibitor, single point].
In the case of `CC1CC(NC(=O)C2(C)CC2(Cl)Cl)CC(C)(C)C1` (configuration not stated), the “activity change, negative = inhibition” value is reported as inactive: -1.93%.
With `CC(C)Oc1ccc(C2CC(=O)N(c3ccccc3)C2=O)cc1` (configuration not stated) the Potency was inconclusive: 13 µM [activator, partial curve, poor fit].
With `O=C(Nc1ccccc1)Nc1ccc(F)c([N+](=O)[O-])c1` the “activity change, negative = inhibition” value was inactive: -10.9%.
With `Cn1c2ccccc2c2nnc(NN)nc21` the “activity change, negative = inhibition” value was inactive: 16%.
In the case of `C=CCn1cccc(C(=O)Nc2ccc(OC)cc2)c1=O`, the Potency is reported as inconclusive: 29.1 µM [activator, single point].
In the case of `CCOc1ccc(CNC(=O)CCCn2nc(CC)n3c(cc4occc43)c2=O)cc1`, the Potency is reported as inconclusive: 23.1 µM [inhibitor, partial curve, poor fit].
With `COCC1CCCN(Cc2cn(-c3ccccc3)nc2-c2ccc3c(c2)OCO3)C1` (configuration not stated) the “activity change, negative = inhibition” value was inactive: -23.8%.
For `O=c1[nH]c2ccccc2nc1/C=C(\O)c1cccs1`, the Potency was inconclusive: 7.3 µM [activator, partial curve].
With `Cn1cnnc1Sc1nc([N+](=O)[O-])nn1C` the “activity change, negative = inhibition” value was inactive: -4.36%.
With `COc1ccccc1Nc1nnc(SCC(=O)c2cc(C)n(CC3CCCO3)c2C)s1` (configuration not stated) the Potency was inconclusive: 8.2 µM [inhibitor, single point].
With `CCCNC(=S)N1CCC(Cc2ccccc2)CC1` the “activity change, negative = inhibition” value was inactive: 1.93%.
In the case of `CCCn1nnnc1NC(=O)c1cc(Cl)ccc1Cl`, the “activity change, negative = inhibition” value is reported as inactive: -4.47%.
With `CC(=O)c1ccc(NC(=S)NCCc2ccccn2)cc1` the Potency was inconclusive: 16.4 µM [activator, partial curve].
For `Fc1ccc(N/N=C2/CC(c3ccccc3)Oc3ccccc32)c(F)c1` (configuration not stated), the Potency was inconclusive: 29.1 µM [activator, single point].
For `Cc1cc(N2C(=O)CC(N3CCN(c4ccc(C(=O)c5cccs5)cc4)CC3)C2=O)no1` (configuration not stated), the Potency was inconclusive: 11.6 µM [activator, partial curve, poor fit].
In the case of `COc1ccc(-c2oc3ccccc3c2C(=O)OCc2ccc(O)cc2)cc1`, the Potency is reported as inconclusive: 11.6 µM [activator, partial curve].
For `CC(C)(C)NC(=S)NNC(=O)[C@H]1C[C@@H]1c1ccccc1`, the “activity change, negative = inhibition” value was inactive: 6.44%.
For `CC(NC(=S)NC(=O)c1cccs1)c1ccccc1` (configuration not stated), the “activity change, negative = inhibition” value was inactive: -11.4%.
With `CC1(C)OC2CC3C4CC(F)C5=CC(=O)C=CC5(C)C4(F)C(O)CC3(C)C2(C(=O)CO)O1` (configuration not stated) the Potency was inconclusive: 25.9 µM [activator, partial curve, poor fit].
With `O=C(CSc1ncccc1-c1nc2ccccc2[nH]1)N1CCN(c2ccccc2F)CC1` the Potency was inconclusive: 20.6 µM [inhibitor, partial curve, poor fit].
In the case of `COc1ccc(-c2cnc3nc[nH]c(=O)c3n2)cc1`, the Potency is reported as inconclusive: 29.1 µM [activator, single point].
With `COc1ccc(N(C(=O)c2ccccc2)S(=O)(=O)c2cccs2)cc1` the Potency was inconclusive: 29.1 µM [inhibitor, partial curve, poor fit].
